Laboratory results from PubChem BioAssay AID1508600 (Functional Genomics Laboratory (NCATS/FGL), 2020).
In all, about 53,000 sequences went through this assay and about 3,700 (7%) were called active.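 How the source made its calls: active means gene knockdowns whose robust z-score for IL-1 alpha signal is at least 2 or at most -2, so actives lie on both sides; inactive means the rest.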 The list shows a part of the results.

test: Components of the Cytosolic LPS Sensing Pathway: Gene Identification via Genome-wide siRNA Screen; conditions: RAW264.7 macrophages, IL-1a HTRF, actives lie on both sides, screened at 100 nM (by protocol), cells primed 5 h with Pam3CSK4 first;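 further: robust z of the log signal after scaling to non-targeting control siRNA wells of the plate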
How it was run: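 RAW264.7 mouse macrophages reverse-transfected with single siRNAs (100 nM final) for 48h, primed with Pam3CSK4 for 5 hours, then transfected with LipidA for 24 hour. Supernatant IL-1a read by HTRF; values normalized to negative-control median, log-transformed robust z-scores.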

Sequence	z-score
GGCAACAGACAUUCAUCUUTT against Mfng	inactive: 0.807
GGUAUGAACCGUGAUCCUCTT against Lrrtm4	inactive: 1.84
CCUCAACUCCGACAAACAGTT against Itfg1	inactive: -1.47
GGUUGUCUUCAACACCAAATT against Lgals7	inactive: -0.147
GGGCCUCUUCCUUAAGCAUTT against Snx8	inactive: -0.382
GGCUGUGAAAAAACUAGAATT against Serpina1e	inactive: -0.359
GGGCCAAUUUAAGUAUAUCTT against Gpr182	inactive: 0.577
GCUUUCUGGGUAACAUAGGTT against Ubqln3	inactive: -1.46
GGAAGAGAAUGAAAUGUACTT against Snrnp48	inactive: -0.227
GCUUGAUCGCUUUCAACUCTT against Coro7	inactive: 0.734
GUAUUAUAGACACCUUGCATT against Phip	inactive: -0.835
GGCUAAGUUCGCUUACAAATT against Tmem120a	inactive: -0.477
GGUCUAUACCAUCCUAUUGTT against Faim2	inactive: -0.273
CCCACUUUGAAAAAGACUCTT against Mei4	active: 2.5
GCACUGUGAAUGCUAUACCTT against Kmt5c	inactive: -0.454
CCGUCGUACACAAUCUUACTT against Fgfr4	inactive: -0.512
GGUCUCAUCUAAGGUGUCATT against Pcdha7	inactive: 0.867
GGCUGUCAAAACAGUGCUCTT against Hmgcs2	inactive: 1.45
GGUAUCAGACAGCUGUAACTT against Mptx1	inactive: 0.359
GGAAGCUGAAAAAUGAACUTT against Sytl5	inactive: -0.7
GGUUGUGAUCAAUUAUUCATT against Evl	inactive: 1.27
CGGUGCUGUAUAUUCAUAUTT against Chrm4	inactive: -0.987

Sequence	z-score
GGUAGCAGCCUUCCGACAUTT against Mtmr9	inactive: 0.0194
GGAGCAAAUCCAGAACCGATT against Trim27	inactive: 1.39
GGUUCAGGAGAACUUCAGUTT against Ambp	inactive: 1.96
CCAUUGAUCUCAUCAACCCTT against Paf1	inactive: -0.608
GGAGCAACUAGGAUGAUGATT against Zbtb32	inactive: -0.987
GGAGAACUACCUGUCAGAATT against Tnni2	inactive: 0.276
GGAAUCACAGUGCAGAAGGTT against Olfr1262	inactive: 0.15
GCUACAGGGAAGUAUUGAATT against Apc	active: 2.05
CCGUCUAUGGUUCAAGGUCTT against Cdca8	inactive: -0.814
GCGAGCUUUAACCUUUCCATT against Olfr1028	active: -2.49
GGACCAGCUGAUCUCAGUATT against Olfr418	inactive: -1.94
GGUAAAUCAGAAGACUGAATT against Tent2	inactive: 0.743
GGAAGAUUCAGCCUUUAGATT against Cchcr1	inactive: -1.06
GGCCAACCAAGAGGACAAUTT against Nup107	inactive: -1.52
CCUACCAGUGACUGCUACATT against Fam222a	inactive: -1.29
GGCCAAACUAAUGUUUUUCTT against Prox2	inactive: -0.594
GGUGAACCUUGGUACCCAUTT against Mrps18b	inactive: -0.186
CCUAGGUCAUACCAAUAUUTT against Spin4	inactive: -0.487
GCAGACCCAGUUUUGACAATT against Llgl1	inactive: -0.0122
CCGUCAAACUACAGUUUGATT against Tmem204	inactive: 0.379
CUUUUCAUCACGAUCCUCUTT against Olfr998	inactive: 0.0861
GGAGGGAGAGUGAAUUGUCTT against Hmgn3	inactive: 1.2

Sequence	z-score
CCUGGAAACUAUUUUGAUGTT against Katnal2	inactive: 0.0379
GCCACAGGCCAAGAUCAUUTT against Pafah1b2	inactive: -0.614
GGUUGCUACAUGGUUAAUUTT against Amz1	inactive: -0.453
GGAGAUGCCUCACAUGCAGTT against Col8a1	inactive: 1.22
GGAAAACCUACCGAAGUUATT against Irf3	active: 2.79
GGCAGAUAAGAAAAAUCCUTT against Stac3	inactive: 1.12
GGUGUAUCGGAACAGUGAGTT against Det1	active: -2.8
GGGUAUCUUCUGGAAAACATT against Angptl4	inactive: 1.93
GGAUUCAAACAAUGAGCUCTT against Fam126b	inactive: 0.9
GCACUACAAAUUUAUACCUTT against U2surp	inactive: -0.0231
GGCCUUCAGUCAAGCAUCATT against Myom1	inactive: 0.906
GGAGAAGUGGAAAAGCAUGTT against Hcls1	inactive: -1.38
GGAUGUCGGCGGUAAAUGATT against Ceacam18	inactive: -0.814
GGACACAAUCCAGAACCAGTT against Angpt4	inactive: -0.189
GGUUUCAUGUUCUUUCUAATT against Cxcl14	inactive: 0.081
CGUUGUCAACUUUAUUUGCTT against Sar1a	inactive: 1.55
CCAUUUAUGGAAUACACCUTT against Tmem150b	inactive: 0.0118
GGAAAAGAACAGAAUAUAGTT against Dcc	inactive: -0.0927
CCCAAAUAAAGUUCACUGGTT against Zfp821	inactive: -1.69
GGAGCCCAGAACAGAUAAUTT against Chit1	inactive: -0.305
CCUUUGAUAUGGGCACAACTT against Nox3	inactive: -0.86
GGGAAAGAAGAAACAAGCATT against Rgs18	inactive: -0.474

Sequence	z-score
GCCUGAGACCCUAGAUGCUTT against Zfp661	inactive: 0.244
GGGUGUUGUGCGAAAAGAATT against Cxcl1	inactive: -0.443
CGAUGAGCUAAGAGAGUCCTT against Cand2	active: 3.09
GGCUUGCUUGUUCAGACACTT against Olfr1324	inactive: 0.851
GGUCUAUGCUUUGCUUUACTT against Dmap1	inactive: -0.157
GGCCAGAAAGGCAGCAAAGTT against Msgn1	inactive: -1.03
CCAAGAUAUCGACUGAUAUTT against Slc5a9	inactive: 0.215
GGUGUUGAUCCUAUUAUUUTT against Nup54	inactive: -1.67
CGUAUAUUUUGGGCCAACATT against Zfp612	inactive: 0.0694
GCUGGUGAACCAAAAACUCTT against Ccdc3	inactive: -0.366
GUGUGAACACAAUCAACCUTT against Ifna6	inactive: -1.74
GGCUUCCAAGCAAAAAUCUTT against Krtcap2	inactive: 0.695
GGUAACUGAUUGCUUAGAUTT against Smndc1	inactive: 0.836
CCCAAGUGAACUAAUAAAGTT against Mrps15	inactive: -0.254
GGUAAAAUUUGACGACACGTT against Klhl6	inactive: -0.421
GGUUGAUUCCAACGACAUCTT against Tinagl1	inactive: -0.173
GCCGAAGUGUUCUACGAUGTT against Mettl22	inactive: 0.86
GGAUCAAGUGGCUUCUGUGTT against Olfr1099	inactive: -0.394
CCCACCUAGGUUCAUCCCATT against Fat1	inactive: -1.4
CGCAUUUAACUCCUUACUCTT against Slc25a12	inactive: -0.414
GCUACUGACCAUUCUAACUTT against Tmem198b	inactive: 0.264
GCAGUUGGCAGGCUAAAAATT against Mff	inactive: 1.98

Sequence	z-score
GUACUUCUGGGAAGAAGAGTT against Podxl2	inactive: -0.876
CCUUAGGAUCGUCUUAUUATT against Zic2	inactive: 0.619
GGGAGGUUCAAAAACUAAUTT against Tmem220	inactive: -1.04
GGUGCCCAUGCUUGUAGGATT against Cstdc1	active: 2.03
GUUUAUGGCCUCCUGUUGCTT against Gpbar1	inactive: -0.773
GGGAGCCAAAGUGAGAUUUTT against Azin2	inactive: 0.736
GGUCAUCGUGUGCAACCUCTT against Zcchc3	active: -3.24
CCAUCCAGUAAGGUUAUUCTT against Npy5r	inactive: 1.55
GGUUCACCUGCAUCAUUGGTT against Smc1b	inactive: -1.86
GCCAGGCAAAUUACAUCGCTT against Shroom1	inactive: 0.303
CCUGUAAGAUGUUUCGGCCTT against Zdhhc18	inactive: 1.04
GGAUGUAAAGAUUAGCGUGTT against Dgcr8	inactive: 0.342
GGAUAACUGCUUCAUUUCCTT against Agbl1	inactive: 0.62
CCCGUGGUCCUACAUUGUUTT against Cdon	active: 2.39
GCAGGUGAAGAGUGAUUUUTT against Il10	inactive: 0.318
GGAAUGUCUAUCACAAUGGTT against Vmn1r230	inactive: 1.78
GGAUUCAGUGGCUAUCAACTT against Olfr770	inactive: -1.73
CGUUGUGCAAUUUAUACUATT against Zfp84	inactive: 0.652
CGGCCUAACAGCCAGACUUTT against 1700013G24Rik	inactive: 0.9

Two entries from above, field by field.
GGUUCACCUGCAUCAUUGGTT against Smc1b
  z-score: inactive: -1.86
CCCGUGGUCCUACAUUGUUTT against Cdon
  z-score: active: 2.39

Part of the list above, field by field.
CCUUAGGAUCGUCUUAUUATT against Zic2
  z-score: inactive: 0.619
GUUUAUGGCCUCCUGUUGCTT against Gpbar1
  z-score: inactive: -0.773
GGUCAUCGUGUGCAACCUCTT against Zcchc3
  z-score: active: -3.24
CCAUCCAGUAAGGUUAUUCTT against Npy5r
  z-score: inactive: 1.55
